The supplement of paper PMC10735217
Where “and” joins values, the source holds several entries; their conditions need not be identical. Equal entries are not always repeated. Structures can show the parent of a compound that is named as a salt. This is one part of the list. Repeats in this data set agree poorly, so a single value says little.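 In a drug-repurposing library screen, luminescence reads luciferase driven by eight TEAD-binding elements, stably integrated into human kidney-derived cells. Compounds scoring over five robust Z scores above the plate mean are called hits.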

System: HEK293A TEAD-LUC reporter
Experiment: TEAD-luciferase reporter activity (YAP activation), robust Z score vs plate; higher = stronger YAP/TEAD activation
Conditions: 24 h

SMILES | TEAD-luciferase reporter activity (compound concentration: 2 uM) | TEAD-luciferase reporter activity (compound concentration: 200 nM) | TEAD-luciferase reporter activity (compound concentration: 10 uM)
O/N=C/Nc1ccc(N2CCOCC2)c(Cl)c1 | inactive: -0.24 |  | 
O/N=C/Nc1ccc(N2CCOCC2)c(Cl)c1 [TS-011, Captisol] |  | inactive: -1.5 | inactive: -1.04
Cc1nc2ccccn2c(=O)c1CCN1CCC(C(=O)c2ccc(F)cc2)CC1 | inactive: 1.23 | inactive: 1.09 | inactive: 0.161
Cc1cc(=O)oc2ccc(NC(=O)C(=O)O)cc12 | inactive: -0.527 | inactive: 1.21 | inactive: 1.7
CCCCCCCCCCCCCCCC(=O)OC/C=C(C)/C=C/C=C(C)/C=C/C1=C(C)CCCC1(C)C |  | inactive: -1.33 | inactive: 0.51
CCCCCCCCCCCCCCCC(=O)OC/C=C(C)/C=C/C=C(C)/C=C/C1=C(C)CCCC1(C)C [Retinol palmitate] | inactive: -1.35 |  | 
COc1cccc2c1C(=O)c1c(O)c3c(c(O)c1C2=O)C[C@@](O)(C(C=O)NNC(=O)CCCCCN1C(=O)C=CC1=O)C[C@@H]3O[C@H]1C[C@H](N)[C@H](O)[C@H](C)O1 (stereo partly drawn) | inactive: 1.16 | inactive: -0.776 | inactive: -0.624
CC(C(=O)O)c1ccc2oc(-c3ccc(F)cc3)nc2c1 (stereo not drawn) | inactive: -2.01 | inactive: -1.73 | inactive: -2.55
CN(CCCNCc1ccc2c(c1)OCO2)c1nc(-n2ccnc2)ns1 | inactive: -0.608 | inactive: -1.56 | inactive: 2.72
CC(C)(CO)NCC(O)c1ccccc1 (stereo not drawn) [fepradinol] | inactive: -2.08 | inactive: 2.23 | inactive: -0.563
CCN(Cc1ccncc1)C(=O)C(CO)c1ccccc1 (stereo not drawn) |  | inactive: 0.0817 | inactive: 0.868
CCN(Cc1ccncc1)C(=O)C(CO)c1ccccc1 (stereo not drawn) [tropicamide] | inactive: -0.537 |  | 
COc1cc(O)c2c(=O)oc(C(C)C(=O)O)cc2c1 (stereo not drawn) | inactive: -0.171 | inactive: 0.658 | inactive: -1.43
C[C@H]1[C@@H](OC(=O)CCC(=O)O)O[C@@H]2OC3(C)CC[C@H]4[C@H](C)CC[C@@H]1[C@@]24OO3 [artesunate, rectal] | inactive: -0.827 |  | 
C[C@H]1[C@@H](OC(=O)CCC(=O)O)O[C@@H]2OC3(C)CC[C@H]4[C@H](C)CC[C@@H]1[C@@]24OO3 [artesunate, rectal, MMV] |  | inactive: -0.121 | inactive: 1.88
NC(=O)c1ccc2nc(-c3ccc(C4(N)CCC4)cc3)c(-c3ccccc3)n2n1 | inactive: 2.14 | inactive: -0.872 | inactive: 1.33
CC(=O)CCCCn1c(=O)c2c(ncn2C)n(C)c1=O |  | inactive: 0.341 | inactive: 1.53
CC(=O)CCCCn1c(=O)c2c(ncn2C)n(C)c1=O [Pentoxifylline] | inactive: -0.429 |  | 

SMILES | TEAD-luciferase reporter activity (compound concentration: 2 uM) | TEAD-luciferase reporter activity (compound concentration: 200 nM) | TEAD-luciferase reporter activity (compound concentration: 10 uM)
O=C(Nc1cccc2c(=O)cc(-c3nnn[nH]3)oc12)c1ccc(OCCCCc2ccccc2)cc1 [Pranlukast hydrate] | inactive: -0.852 |  | 
O=C(Nc1cccc2c(=O)cc(-c3nnn[nH]3)oc12)c1ccc(OCCCCc2ccccc2)cc1 [pranlukast] | inactive: -1.21 | inactive: -1.11 | inactive: 1.87
Cc1ccccc1CNC(=O)[C@@H]1N(C(=O)C(O)C(Cc2ccccc2)NC(=O)c2cccc(O)c2C)CSC1(C)C (stereo partly drawn) | inactive: -0.846 | inactive: -1.32 | inactive: 0.575
CCC(O)COc1ccc2nc(C(=O)Nc3nc4ccc(-c5cc(F)cc(Cl)c5)cc4[nH]3)cn2n1 (stereo not drawn) | inactive: 0.699 and inactive: -0.625 | inactive: -0.131 and inactive: -1.1 | inactive: -0.684 and inactive: -1.01
CC(C)CC(NC(=O)OCc1ccccc1)C(=O)NC(C(=O)NCC(=O)C=[N+]=[N-])C(C)C (stereo not drawn) | inactive: -0.754 | inactive: -2.56 | inactive: -0.708
CC(C)(C)NCC(O)COc1cccc2nc(O)[nH]c12 (single isomer, unassigned; (-)) | inactive: -0.721 | inactive: -2.26 | inactive: -1.43
CC(=O)NCCC(=O)N1Cc2ccccc2CC2(CCCCN2CC2CCNCC2)C1 (stereo not drawn) |  | inactive: 0.186 | inactive: -0.0624
O=C(O)c1cn(C2CC2)c2c(Cl)c(N3C[C@@H]4CCCN[C@@H]4C3)c(F)cc2c1=O | inactive: 0.304 | inactive: 1.8 | inactive: -0.51
CN(C)CCC(O)(P(=O)(O)O)P(=O)(O)O [olpadronic acid] | inactive: 0.162 | inactive: 0.0336 | inactive: 2.12
CSC(=O)[C@@]1(O)[C@@H](C)C[C@H]2[C@@H]3CCC4=CC(=O)C=C[C@]4(C)[C@@]3(F)[C@@H](O)C[C@@]21C [timobesone] | inactive: 1.95 | inactive: -1.12 | inactive: -0.385
CN1CCC[C@@H]1Cc1c[nH]c2ccc(CCS(=O)(=O)c3ccccc3)cc12 [Eletriptan Hydrobromide] | inactive: -0.896 | inactive: -0.328 | inactive: -0.329
COc1cc(N)c(Cl)cc1C(=O)NC1CCN2C(C)CCCC2C1 (stereo not drawn) | inactive: -0.664 | inactive: -1.1 | inactive: -0.144
Cc1cc(C)nc(N2CCN(c3ccc(NC(=O)C(=O)c4c(-c5ccccc5)cc(C)n4C)cc3)CC2)c1 | inactive: -1.55 | inactive: 0.439 | inactive: -0.711
CCNCCCCNCCCCNCCCCNCC | inactive: 0.581 | inactive: 0.534 | inactive: 2.03
COC(=O)NCCc1ccc(OCC(O)CNC(C)C)cc1 (stereo not drawn) [Pamatolol sulfate] | inactive: -0.482 | inactive: -1.34 | inactive: 0.944
Cc1nc(OCCCCCN2CCCCC2)cc(-c2ccc(F)cc2)n1 | inactive: -1.6 |  | 
Cc1nc(OCCCCCN2CCCCC2)cc(-c2ccc(F)cc2)n1 [enecadin] | inactive: 3.6 | inactive: 0.0951 | inactive: -0.183
C=CC[C@H](C(=O)NO)[C@@H](CC(C)C)C(=O)N[C@@H](Cc1ccccc1)C(=O)NC | inactive: -1.11 | inactive: -1.16 | inactive: -1.25

An excerpt of these results, with tabs.
SMILES	TEAD-luciferase reporter activity (compound concentration: 2 uM)	TEAD-luciferase reporter activity (compound concentration: 200 nM)	TEAD-luciferase reporter activity (compound concentration: 10 uM)
O=C(Nc1cccc2c(=O)cc(-c3nnn[nH]3)oc12)c1ccc(OCCCCc2ccccc2)cc1 [Pranlukast hydrate]	inactive: -0.852		
O=C(Nc1cccc2c(=O)cc(-c3nnn[nH]3)oc12)c1ccc(OCCCCc2ccccc2)cc1 [pranlukast]	inactive: -1.21	inactive: -1.11	inactive: 1.87
CCC(O)COc1ccc2nc(C(=O)Nc3nc4ccc(-c5cc(F)cc(Cl)c5)cc4[nH]3)cn2n1 (stereo not drawn)	inactive: 0.699 and inactive: -0.625	inactive: -0.131 and inactive: -1.1	inactive: -0.684 and inactive: -1.01
CC(C)CC(NC(=O)OCc1ccccc1)C(=O)NC(C(=O)NCC(=O)C=[N+]=[N-])C(C)C (stereo not drawn)	inactive: -0.754	inactive: -2.56	inactive: -0.708
CC(C)(C)NCC(O)COc1cccc2nc(O)[nH]c12 (single isomer, unassigned; (-))	inactive: -0.721	inactive: -2.26	inactive: -1.43
CC(=O)NCCC(=O)N1Cc2ccccc2CC2(CCCCN2CC2CCNCC2)C1 (stereo not drawn)		inactive: 0.186	inactive: -0.0624
COc1cc(N)c(Cl)cc1C(=O)NC1CCN2C(C)CCCC2C1 (stereo not drawn)	inactive: -0.664	inactive: -1.1	inactive: -0.144
COC(=O)NCCc1ccc(OCC(O)CNC(C)C)cc1 (stereo not drawn) [Pamatolol sulfate]	inactive: -0.482	inactive: -1.34	inactive: 0.944
Cc1nc(OCCCCCN2CCCCC2)cc(-c2ccc(F)cc2)n1	inactive: -1.6		
C=CC[C@H](C(=O)NO)[C@@H](CC(C)C)C(=O)N[C@@H](Cc1ccccc1)C(=O)NC	inactive: -1.11	inactive: -1.16	inactive: -1.25
